Test results: patent EP4745151A1 (Jiangsu Hengrui Pharmaceuticals Co., Ltd., priority 2023, dated 2025)

Assay: general procedure: Fmoc solid-phase peptide synthesis; Wang resin (degree of substitution = 1.08 mmol/g); DIC/HOBT
Details: conjugation step

PEPTIDE1{[Hex].C.[Aib].P.[4R-OH-Pro].T.Q.F.C}|CHEM1{[tMeBn(DOTA-AET)]}$PEPTIDE1,CHEM1,2:R3-1:R1|PEPTIDE1,CHEM1,9:R3-1:R2$$$V2.0
final purity (method not given): 97.8%

PEPTIDE1{[Hex].C.[Aib].P.[4R-OH-Pro].T.Q.F.C}|CHEM1{[tMeBn(NOTA-AET)]}$PEPTIDE1,CHEM1,2:R3-1:R1|PEPTIDE1,CHEM1,9:R3-1:R2$$$V2.0
final purity (method not given): 97.20%

PEPTIDE1{[Hex].C.[Aib].P.[4R-OH-Pro].T.Q.[2-CF3-Phe].C}|CHEM1{[tMeBn(DOTA-AET)]}$PEPTIDE1,CHEM1,2:R3-1:R1|PEPTIDE1,CHEM1,9:R3-1:R2$$$V2.0
final purity (method not given): 98.9%

PEPTIDE1{[Hex].C.[Aib].P.[4R-OH-Pro].T.Q.[2-F-Phe].C}|CHEM1{[tMeBn(DOTA-AET)]}$PEPTIDE1,CHEM1,2:R3-1:R1|PEPTIDE1,CHEM1,9:R3-1:R2$$$V2.0
final purity (method not given): 96.9%

PEPTIDE1{[Hex].C.[Aib].P.[4R-OH-Pro].T.Q.[2-F-Phe].C}|CHEM1{[tMeBn(NOTA-AET)]}$PEPTIDE1,CHEM1,2:R3-1:R1|PEPTIDE1,CHEM1,9:R3-1:R2$$$V2.0
final purity (method not given): 99.2%

HELM strings list residues between dots; [ac] is acetyl, [am] amide, other brackets name non-standard units.
